This note sets out measurements from doi:10.1101/2024.05.07.592940.

Amino acid sequences for entries named in this document (tags omitted).
UniProt P01106: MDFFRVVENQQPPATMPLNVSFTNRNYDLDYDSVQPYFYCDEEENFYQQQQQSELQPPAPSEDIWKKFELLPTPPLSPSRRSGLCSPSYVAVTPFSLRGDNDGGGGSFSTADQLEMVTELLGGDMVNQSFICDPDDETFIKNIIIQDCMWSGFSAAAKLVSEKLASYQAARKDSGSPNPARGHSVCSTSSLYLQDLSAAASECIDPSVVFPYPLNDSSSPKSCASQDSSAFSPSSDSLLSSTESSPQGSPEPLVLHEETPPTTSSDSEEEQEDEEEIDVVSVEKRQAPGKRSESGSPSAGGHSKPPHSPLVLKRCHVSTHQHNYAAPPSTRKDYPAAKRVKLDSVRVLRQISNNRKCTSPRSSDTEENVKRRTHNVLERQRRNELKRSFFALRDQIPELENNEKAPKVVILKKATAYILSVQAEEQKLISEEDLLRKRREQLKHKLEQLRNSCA

No constants are given. Whether binding was seen depends on the method and setting. Binding seen in cells or lysates may run through a third protein. Some entries that bind do so weakly or less than the wild type. For some assays here: Sequences can lack the tags named with a protein.

Assay [1] concerns the target T1, GST-PTPN2 recombinant protein (human) (UniProt P17706).
T1 sequence: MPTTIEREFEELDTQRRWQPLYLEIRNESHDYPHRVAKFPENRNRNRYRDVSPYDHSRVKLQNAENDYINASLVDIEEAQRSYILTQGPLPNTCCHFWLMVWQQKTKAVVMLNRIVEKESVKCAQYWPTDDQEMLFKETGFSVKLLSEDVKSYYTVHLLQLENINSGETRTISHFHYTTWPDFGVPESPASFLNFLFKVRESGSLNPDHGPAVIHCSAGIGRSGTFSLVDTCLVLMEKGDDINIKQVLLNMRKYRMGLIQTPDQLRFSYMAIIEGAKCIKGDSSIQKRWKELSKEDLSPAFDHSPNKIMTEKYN
Briefly: pull-down.

The target in assay [2] is T2, non-receptor protein tyrosine phosphatase type 2 (PTPN2), endogenous (human (endogenous in MOLM13)) (UniProt P17706).
T2 sequence: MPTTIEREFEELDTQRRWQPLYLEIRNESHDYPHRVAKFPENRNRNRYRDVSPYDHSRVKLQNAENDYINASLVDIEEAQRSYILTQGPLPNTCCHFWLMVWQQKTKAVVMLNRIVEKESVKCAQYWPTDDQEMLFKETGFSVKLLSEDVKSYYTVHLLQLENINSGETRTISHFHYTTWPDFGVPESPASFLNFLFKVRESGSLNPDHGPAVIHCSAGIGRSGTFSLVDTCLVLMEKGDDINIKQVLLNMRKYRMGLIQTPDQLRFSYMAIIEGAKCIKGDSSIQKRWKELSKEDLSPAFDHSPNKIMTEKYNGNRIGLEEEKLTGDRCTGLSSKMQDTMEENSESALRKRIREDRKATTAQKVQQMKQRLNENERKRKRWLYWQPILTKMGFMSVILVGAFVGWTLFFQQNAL
Briefly: co-IP.

As for “C-MYC, endogenous (from UniProt P01106 1-454)”, the binding entry in assay [1] and in assay [2] was “binds” each time.
